PubChem BioAssay AID1259405, NCATS – 2018

Assay: 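Silenced genes that increase secreted GFP made by CHO cells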 (primary screen)
System: Chinese hamster CHO-K1 ovary cells with stable secreted eGFP expression
Reagent: single siRNA against mouse genes, 0.8 pmol siRNA per well (2 µl of 400 nM stock)
Timing: 3 days
Detection: 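Percent of the per-plate non-targeting control median for intracellular GFP per well by laser scanning cytometry and for cell viability by ATP luminescence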
Scale: GFP, % of control: higher = more GFP per well, higher productivity; viability (ATP), % of control: higher = more viable cells (more ATP)
Hit rule: 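Called active when intracellular GFP, relative to negative control, is at or above 120%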
Shown is one part, drawn at random, of about 50,000 reagents tested. Over the whole deposit, about 4,000 (8%) got an active call. 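Mouse siRNA library applied to hamster cells; one well for each siRNA.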 Entries without a mark were called inactive. The numbers tell different reagents against one gene apart.

| gene | siRNA no. | GFP, % of control | viability (ATP), % of control |
| --- | --- | --- | --- |
| Ube3c (ubiquitin protein ligase E3C) | 1 | 95.9 | 78.1 |
| Ube3c (ubiquitin protein ligase E3C) | 2 | 63.1 | 57.1 |
| Ube3c (ubiquitin protein ligase E3C) | 3 | 60.8 | 51.3 |
| Il12rb2 (interleukin 12 receptor, beta 2) | 1 | 54.2 | 59.4 |
| Il12rb2 (interleukin 12 receptor, beta 2) | 2 | 83.8 | 73.8 |
| Il12rb2 (interleukin 12 receptor, beta 2) | 3 | 49.8 | 52.7 |
| Gpr152 (G protein-coupled receptor 152) | 1 | 49.1 | 68.9 |
| Gpr152 (G protein-coupled receptor 152) | 2 | 84.2 | 80.3 |
| Gpr152 (G protein-coupled receptor 152) | 3 | 67.2 | 86.8 |
| Spin4 (spindlin family, member 4) | 1 | 63.4 | 59.2 |
| Spin4 (spindlin family, member 4) | 2 | 78 | 115 |
| Spin4 (spindlin family, member 4) | 3 | 70.5 | 41.6 |
| G6pd2 (glucose-6-phosphate dehydrogenase 2) | 1 | 83.1 | 65.4 |
| G6pd2 (glucose-6-phosphate dehydrogenase 2) | 2 | 64.2 | 77.2 |
| G6pd2 (glucose-6-phosphate dehydrogenase 2) | 3 | 23.3 | 30.7 |
| Tead4 (TEA domain family member 4) | 1 | 80.7 | 91 |
| Tead4 (TEA domain family member 4) | 2 | 83.6 | 59.1 |
| Tead4 (TEA domain family member 4) | 3 | 83.8 | 96.7 |
| Ddb2 (damage specific DNA binding protein 2) | 1 | 78.7 | 108 |
| Ddb2 (damage specific DNA binding protein 2) | 2 | 48 | 45.2 |
| Ddb2 (damage specific DNA binding protein 2) | 3 | 105 | 72.8 |
| Rnf215 (ring finger protein 215) | 1 | 51.5 | 69.4 |
| Rnf215 (ring finger protein 215) | 2 | 47.8 | 48.1 |
| Rnf215 (ring finger protein 215) | 3 | 46.5 | 62 |
| Pdcd2l (programmed cell death 2-like) | 1 | 128 (active) | 95.7 |
| Pdcd2l (programmed cell death 2-like) | 2 | 126 (active) | 110 |
| Pdcd2l (programmed cell death 2-like) | 3 | 82.1 | 90 |
| Serf1 (small EDRK-rich factor 1) | 1 | 66 | 45.9 |
| Serf1 (small EDRK-rich factor 1) | 2 | 103 | 69 |
| Serf1 (small EDRK-rich factor 1) | 3 | 73.3 | 78.3 |
| E230025N22Rik (Riken cDNA E230025N22 gene) | 1 | 76.1 | 85.4 |
| E230025N22Rik (Riken cDNA E230025N22 gene) | 2 | 80.7 | 95.3 |
| E230025N22Rik (Riken cDNA E230025N22 gene) | 3 | 54.7 | 40.5 |
| Corin (corin, serine peptidase) | 1 | 88.1 | 88.5 |
| Corin (corin, serine peptidase) | 2 | 48.3 | 33.4 |
| Corin (corin, serine peptidase) | 3 | 51.6 | 59.9 |
| Ucma (upper zone of growth plate and cartilage matrix associated) | 1 | 71.2 | 88.7 |
| Ucma (upper zone of growth plate and cartilage matrix associated) | 2 | 80 | 83 |
| Ucma (upper zone of growth plate and cartilage matrix associated) | 3 | 50.8 | 51.1 |
| Cacna2d1 (calcium channel, voltage-dependent, alpha2/delta subunit 1) | 1 | 56.9 | 81.5 |
| Cacna2d1 (calcium channel, voltage-dependent, alpha2/delta subunit 1) | 2 | 59.9 | 27.5 |
| Cacna2d1 (calcium channel, voltage-dependent, alpha2/delta subunit 1) | 3 | 56.6 | 56.4 |
| Tex21 (testis expressed gene 21) | 1 | 65.5 | 75.7 |
| Tex21 (testis expressed gene 21) | 2 | 149 (active) | 143 |
| Tex21 (testis expressed gene 21) | 3 | 120 (active) | 149 |

16 neighbouring entries already listed, for reference:
| gene | siRNA no. | GFP, % of control | viability (ATP), % of control |
| --- | --- | --- | --- |
| Ddb2 (damage specific DNA binding protein 2) | 2 | 48 | 45.2 |
| Ddb2 (damage specific DNA binding protein 2) | 3 | 105 | 72.8 |
| Rnf215 (ring finger protein 215) | 1 | 51.5 | 69.4 |
| Rnf215 (ring finger protein 215) | 2 | 47.8 | 48.1 |
| Rnf215 (ring finger protein 215) | 3 | 46.5 | 62 |
| Pdcd2l (programmed cell death 2-like) | 1 | 128 (active) | 95.7 |
| Pdcd2l (programmed cell death 2-like) | 2 | 126 (active) | 110 |
| Pdcd2l (programmed cell death 2-like) | 3 | 82.1 | 90 |
| Serf1 (small EDRK-rich factor 1) | 1 | 66 | 45.9 |
| Serf1 (small EDRK-rich factor 1) | 2 | 103 | 69 |
| Serf1 (small EDRK-rich factor 1) | 3 | 73.3 | 78.3 |
| E230025N22Rik (Riken cDNA E230025N22 gene) | 1 | 76.1 | 85.4 |
| E230025N22Rik (Riken cDNA E230025N22 gene) | 2 | 80.7 | 95.3 |
| E230025N22Rik (Riken cDNA E230025N22 gene) | 3 | 54.7 | 40.5 |
| Corin (corin, serine peptidase) | 1 | 88.1 | 88.5 |
| Corin (corin, serine peptidase) | 2 | 48.3 | 33.4 |

Additional entries follow:
| gene | siRNA no. | GFP, % of control | viability (ATP), % of control |
| --- | --- | --- | --- |
| Or7g32 (olfactory receptor family 7 subfamily G member 32) | 1 | 66.9 | 45.7 |
| Or7g32 (olfactory receptor family 7 subfamily G member 32) | 2 | 103 | 58.8 |
| Or7g32 (olfactory receptor family 7 subfamily G member 32) | 3 | 102 | 100 |
| Axin2 (axin 2) | 1 | 133 (active) | 93.4 |
| Axin2 (axin 2) | 2 | 62.6 | 68.2 |
| Axin2 (axin 2) | 3 | 131 (active) | 147 |
| Nrp1 (neuropilin 1) | 1 | 93.1 | 149 |
| Nrp1 (neuropilin 1) | 2 | 63.2 | 81.5 |
| Nrp1 (neuropilin 1) | 3 | 68.6 | 76.3 |
| Kctd12b (potassium channel tetramerisation domain containing 12b) | 1 | 44.7 | 55.4 |
| Kctd12b (potassium channel tetramerisation domain containing 12b) | 2 | 105 | 58.2 |
| Kctd12b (potassium channel tetramerisation domain containing 12b) | 3 | 78.5 | 66.6 |
| Or8b36 (olfactory receptor family 8 subfamily B member 36) | 1 | 82.4 | 87.8 |
| Or8b36 (olfactory receptor family 8 subfamily B member 36) | 2 | 81.2 | 72.8 |
| Or8b36 (olfactory receptor family 8 subfamily B member 36) | 3 | 127 (active) | 109 |
| Klra15 (killer cell lectin-like receptor, subfamily A, member 15) | 1 | 60.3 | 74.7 |
| Klra15 (killer cell lectin-like receptor, subfamily A, member 15) | 2 | 50.4 | 19.2 |
| Klra15 (killer cell lectin-like receptor, subfamily A, member 15) | 3 | 99.4 | 73.4 |
| Tpsab1 (tryptase alpha/beta 1) | 1 | 57.7 | 43 |
| Tpsab1 (tryptase alpha/beta 1) | 2 | 53.2 | 64.7 |
| Tpsab1 (tryptase alpha/beta 1) | 3 | 104 | 98.6 |
| Mpv17 (MpV17 mitochondrial inner membrane protein) | 1 | 30.4 | 12.1 |
| Mpv17 (MpV17 mitochondrial inner membrane protein) | 2 | 80.5 | 85.1 |
| Mpv17 (MpV17 mitochondrial inner membrane protein) | 3 | 47.1 | 43.6 |
| Or4f4b (olfactory receptor family 4 subfamily F member 4B) | 1 | 139 (active) | 94.2 |
| Or4f4b (olfactory receptor family 4 subfamily F member 4B) | 2 | 78.6 | 80.2 |
| Or4f4b (olfactory receptor family 4 subfamily F member 4B) | 3 | 73.8 | 98.3 |
| Ppp6c (protein phosphatase 6, catalytic subunit) | 1 | 71.2 | 86.7 |
| Ppp6c (protein phosphatase 6, catalytic subunit) | 2 | 85.1 | 80.5 |
| Zfp260 (zinc finger protein 260) | 1 | 64.3 | 65.3 |
| Zfp260 (zinc finger protein 260) | 2 | 68.7 | 73.5 |
| Zfp260 (zinc finger protein 260) | 3 | 61 | 43.8 |
| Smad1 (SMAD family member 1) | 1 | 35.9 | 25.9 |
| Smad1 (SMAD family member 1) | 2 | 62.3 | 72.4 |
| Smad1 (SMAD family member 1) | 3 | 120 | 84.1 |
| Itsn2 (intersectin 2) | 1 | 79.2 | 104 |
| Itsn2 (intersectin 2) | 2 | 75.5 | 55.3 |
| Itsn2 (intersectin 2) | 3 | 69.8 | 59.2 |
| Git2 (GIT ArfGAP 2) | 1 | 177 (active) | 116 |
| Git2 (GIT ArfGAP 2) | 2 | 73.8 | 60.1 |
| Git2 (GIT ArfGAP 2) | 3 | 81.7 | 91.9 |
| Polr3f (polymerase (RNA) III (DNA directed) polypeptide F) | 1 | 73.8 | 78.6 |
| Polr3f (polymerase (RNA) III (DNA directed) polypeptide F) | 2 | 66.9 | 78.2 |
| Bbs12 (Bardet-Biedl syndrome 12) | 1 | 88.7 | 82.4 |
| Bbs12 (Bardet-Biedl syndrome 12) | 2 | 78.7 | 56.5 |
| Bbs12 (Bardet-Biedl syndrome 12) | 3 | 98.8 | 77.1 |
| Hnrnpl (heterogeneous nuclear ribonucleoprotein L) | 1 | 59.3 | 57.1 |
| Hnrnpl (heterogeneous nuclear ribonucleoprotein L) | 2 | 52.8 | 40.2 |
| Hnrnpl (heterogeneous nuclear ribonucleoprotein L) | 3 | 100 | 50.4 |
| Cnot8 (CCR4-NOT transcription complex, subunit 8) | 1 | 76.8 | 69 |
| Cnot8 (CCR4-NOT transcription complex, subunit 8) | 2 | 100 | 85 |
| Klra3 (killer cell lectin-like receptor, subfamily A, member 3) | 1 | 37.1 | 38.1 |
| Klra3 (killer cell lectin-like receptor, subfamily A, member 3) | 2 | 72.9 | 60.2 |
| Klra3 (killer cell lectin-like receptor, subfamily A, member 3) | 3 | 107 | 42.9 |
| Zfp13 (zinc finger protein 13) | 1 | 39.9 | 48.5 |
| Zfp13 (zinc finger protein 13) | 2 | 76.4 | 85 |
| Zfp13 (zinc finger protein 13) | 3 | 37.1 | 65.1 |
| Txnrd3 (thioredoxin reductase 3) | 1 | 69.1 | 70.2 |
| Txnrd3 (thioredoxin reductase 3) | 2 | 86.8 | 62.6 |
| Txnrd3 (thioredoxin reductase 3) | 3 | 56.1 | 65.7 |
| Ube2r2 (ubiquitin-conjugating enzyme E2R 2) | 1 | 63.7 | 69 |
| Ube2r2 (ubiquitin-conjugating enzyme E2R 2) | 2 | 87.7 | 91 |
| Ube2r2 (ubiquitin-conjugating enzyme E2R 2) | 3 | 87.4 | 97.7 |
